Data as given in PubChem BioAssay AID720505 (Drosophila RNAi Screening Center, 2013)
In all, the deposit lists about 20,000 reagents; shown is a random part of those that have a named target and a result. Over the whole deposit, about 2,100 (10%) are marked active. 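Raw plate signals without normalisation; calls rest on control-based scores that were not deposited; replicate 2 separates called from uncalled poorly.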 A plus sign joins genes that one reagent is predicted to hit. Reagent sequences are not shown. The record does not give: the amount of reagent, the time to read-out.

Screen: 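Fly regulators or components of the CRAC channel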 (primary screen)
System: Drosophila S2R+ cells
Reagent: long dsRNA against Drosophila genes
Treatment: thapsigargin (2 µM) in calcium-free buffer to empty internal stores, then 2 mM calcium added back
Measured: 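Stores emptied by 2 µM thapsigargin without calcium, then 2 mM calcium re-added; fluo-4 fluorescence followed by FLIPR in 384-well plates, per-well averaged endpoint, raw; two screen passes, some wells retested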
Scale: calcium signal and retest calcium signal: higher = more calcium entry after store depletion
Call rule: 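About 1500 genes called as lowering calcium entry, by varying amounts, judged against per-plate control wells with STIM1 as positive and Rho1 as negative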
Meaning of the calls: active = called as lowering calcium entry; inactive = not called

target,amplicon,"calcium signal, replicate 1","calcium signal, replicate 2","retest calcium signal, replicate 1","retest calcium signal, replicate 2",Outcome
CG11828,DRSC14394,179,142,,,inactive
CG11828,DRSC22580,166,218,,,inactive
knk (knickkopf),DRSC15993,91.8,94.2,,,inactive
l(2)10685 (lethal (2) 10685),DRSC00665,106,206,,,inactive
ref(2)P (refractory to sigma P),DRSC03601,158,91.2,,,inactive
Shal (Shaker cognate l),DRSC11283,91.2,142,,,inactive
CG13043,DRSC09924,110,117,,,inactive
CG30324,DRSC22655,108,196,,,inactive
Ugt316A1 (UDP-glycosyltransferase family 316 member A1),DRSC10376,83.1,168,,,inactive
CG13722,DRSC08331,85.2,78.1,,,inactive
CG13722,DRSC21616,136,92.8,,,inactive
Ent1 (Equilibrative nucleoside transporter 1),DRSC00330,123,160,,,inactive
CG34011,DRSC00888,100,115,,,inactive
y (yellow),DRSC18853,91.3,119,,,inactive
CG34195,DRSC06909,189,148,,,inactive
CG6424,DRSC05936,133,117,,,inactive
CG9130 + CG9133,DRSC08624,59.9,90.2,98.9,103,inactive
CG9130 + CG9133,DRSC08625,130,134,,,inactive
CG9130 + CG9133,DRSC22010,98,152,,,inactive
Gyc76C + CG42637,DRSC11180,105,85.2,,,inactive
CG42749,DRSC18091,62.6,300,,,active
CG42749,DRSC18092,294,94.8,,,inactive
Muc14A (Mucin 14A),DRSC23264,146,85.5,,,inactive
mip40 (Myb-interacting protein 40),DRSC06541,124,104,,,inactive
Muc55B (Mucin 55B),DRSC21440,152,66.7,,,inactive
CG11122,DRSC19382,99.2,77.2,,,inactive
Gcn2,DRSC16678,71.4,87.5,,,inactive
CG17930,DRSC15292,121,229,,,inactive
Prosalpha4 (Proteasome alpha4 subunit),DRSC20271,109,152,,,inactive
CG15725,DRSC19691,94.2,101,,,inactive
CG3916,DRSC15520,123,99,,,inactive
RPA1 (Replication protein A1),DRSC16830,72.6,64.9,,,active
TwdlZ (TweedleZ),DRSC19154,86.6,107,,,inactive
CG3511,DRSC04382,174,106,,,inactive
Lcp3 (Larval cuticle protein 3),DRSC07457,130,106,,,inactive
tomboy20,DRSC14913,158,88.6,,,inactive
CG30288,DRSC22005,77.2,137,,,inactive
Pgi (Phosphoglucose isomerase),DRSC07507,164,126,,,inactive
Hmt4-20 (Histone methyltransferase 4-20),DRSC18482,101,103,,,inactive
CG14712,DRSC14935,90.2,73.5,,,inactive
Hmgcr (HMG Coenzyme A reductase),DRSC16704,80.5,81.1,,,active
CG12159,DRSC06114,119,113,,,inactive
CG11444,DRSC17784,113,127,,,inactive
SNRPG (Small nuclear ribonucleoprotein G),DRSC20207,68.6,115,,,active
CG4520,DRSC15590,128,119,,,inactive
CG17633,DRSC02631,191,149,,,inactive
pxb,DRSC13110,,,,,active
pxb,DRSC14996,119,100,117,98.7,inactive
pxb,DRSC14997,147,102,,,inactive
pxb,DRSC22225,101,260,,,inactive
CG7536,DRSC20050,169,91.9,,,inactive
fog (folded gastrulation),DRSC20646,187,150,,,inactive
Obp83ef (Odorant-binding protein 83ef),DRSC12268,97.6,133,,,inactive
fal (falten),DRSC11087,130,76.1,,,inactive
CG34232,DRSC05332,82.6,101,,,inactive
Plekhm1 (Pleckstrin homology and RUN domain containing M1),DRSC04527,64.5,161,,,inactive
CG30053,DRSC07260,84.8,192,,,inactive
CG30109,DRSC05675,74.2,112,,,active
Chd1 (Chromodomain-helicase-DNA-binding protein 1),DRSC00745,110,165,,,inactive
CG5618,DRSC11780,90.9,78.3,,,inactive
CG14759,DRSC06494,167,190,,,inactive
l(3)mbt (lethal (3) malignant brain tumor),DRSC16983,132,167,,,inactive
fusl (fuseless),DRSC02351,146,177,,,inactive
Nmdar1 (NMDA receptor 1),DRSC12356,120,110,,,inactive
CCT4 (Chaperonin containing TCP1 subunit 4),DRSC02865,122,143,,,inactive
p-cup (presidents-cup),DRSC19513,98.8,80.3,,,inactive
Herc4 (HECT and RLD domain containing E3 ubiquitin ligase 4),DRSC08631,95.2,105,,,inactive
CG15754,DRSC19719,108,81.9,,,inactive
CG44014 + CG44013,DRSC14995,145,173,,,inactive
CG30275,DRSC04163,154,199,,,inactive
"betaNACtes3 (Nascent-associated complex beta-subunit-like, testis 3)",DRSC20183,128,182,,,inactive
thoc6,DRSC10528,135,110,,,inactive
CG8372,DRSC03086,154,252,,,inactive
cutlet,DRSC00284,134,123,101,93.9,inactive
CG16758,DRSC08492,165,131,,,inactive
Rpn6 (Regulatory particle non-ATPase 6),DRSC07541,77.8,103,,,active
Bsg (Basigin),DRSC01010,150,93.4,,,inactive
Bsg (Basigin),DRSC01011,71.8,78.6,,,active
CG6345,DRSC16024,135,142,,,inactive
CG14302,DRSC14781,147,136,,,inactive
Pfdn2 (Prefoldin 2),DRSC10618,123,92.1,,,inactive
Cad87A (Cadherin 87A),DRSC16161,98.9,118,,,inactive
Ets21C (Ets at 21C),DRSC00751,93.9,152,,,inactive

Hits, among the entries above:
target,amplicon,"calcium signal, replicate 1","calcium signal, replicate 2","retest calcium signal, replicate 1","retest calcium signal, replicate 2",Outcome
CG42749,DRSC18091,62.6,300,,,active
RPA1 (Replication protein A1),DRSC16830,72.6,64.9,,,active
Hmgcr (HMG Coenzyme A reductase),DRSC16704,80.5,81.1,,,active
SNRPG (Small nuclear ribonucleoprotein G),DRSC20207,68.6,115,,,active
pxb,DRSC13110,,,,,active
CG30109,DRSC05675,74.2,112,,,active
Rpn6 (Regulatory particle non-ATPase 6),DRSC07541,77.8,103,,,active
Bsg (Basigin),DRSC01011,71.8,78.6,,,active
